Experimental data: PubChem BioAssay AID743255 (National Center for Advancing Translational Sciences (NCATS), 2014)
About 910 (0.23%) of roughly 390,000 compounds were called active. The inconclusive results got no clear call from the source; some entries with a clear call stand among them for comparison. The call rests on the fitted dose curve; in most records, active means well fitted inhibition curve with a large enough effect; inconclusive means small, poorly fitted or top-dose-only effect; inactive means no such curve, though single readings can be large or run the other way. Potencies beside an inconclusive call are fits to weak or partial responses and may not hold up.

Sequences of proteins named here, by UniProt entry; tags and fusion partners are left off. A change or cut given only in a name is not applied to a line headed by its entry.
UniProt O94782: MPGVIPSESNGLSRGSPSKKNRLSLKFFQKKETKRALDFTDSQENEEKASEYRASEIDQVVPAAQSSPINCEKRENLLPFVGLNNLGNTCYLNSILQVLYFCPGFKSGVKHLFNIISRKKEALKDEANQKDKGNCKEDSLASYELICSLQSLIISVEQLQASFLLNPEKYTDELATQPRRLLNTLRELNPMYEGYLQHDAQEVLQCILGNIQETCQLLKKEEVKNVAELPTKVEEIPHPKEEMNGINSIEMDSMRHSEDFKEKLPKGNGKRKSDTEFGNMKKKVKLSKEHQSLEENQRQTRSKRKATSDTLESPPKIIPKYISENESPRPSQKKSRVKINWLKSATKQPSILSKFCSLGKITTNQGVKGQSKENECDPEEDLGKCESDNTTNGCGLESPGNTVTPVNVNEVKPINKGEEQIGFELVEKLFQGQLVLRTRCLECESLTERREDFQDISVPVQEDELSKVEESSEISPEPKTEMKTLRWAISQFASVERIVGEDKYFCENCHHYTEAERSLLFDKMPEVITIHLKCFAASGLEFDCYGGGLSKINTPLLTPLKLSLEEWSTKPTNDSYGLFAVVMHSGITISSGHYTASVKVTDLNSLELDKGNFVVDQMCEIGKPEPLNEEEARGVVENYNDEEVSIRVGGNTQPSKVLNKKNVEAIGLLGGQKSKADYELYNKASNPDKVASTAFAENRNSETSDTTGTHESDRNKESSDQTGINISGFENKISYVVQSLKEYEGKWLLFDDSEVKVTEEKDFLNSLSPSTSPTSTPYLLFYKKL

biological target: Ubiquitin carboxyl-terminal hydrolase 1 (Homo sapiens) (UniProt O94782); assay: Inhibitors of USP1/UAF1: Primary Screen; settings: recombinant USP1/UAF1, Ub-Rhodamine cleavage fluorescence; series mostly up to 57.1 µM; further: nearly all actives have a fitted effect of over 60% in size
Summary of the method: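 USP1/UAF1 complex at 1 nM was preincubated with compound for 15 min at room temperature, then Ub-Rho substrate (150nM final) was added. Fluorescence (480/540 nm) was read kinetically, 6 reads every 60 seconds.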
Potency means the concentration at half of the fitted maximal effect.

Structure (SMILES)	Potency
NNC(=O)CSc1nnc(-c2ccccc2)n1-c1ccccc1	inconclusive: 50.1 µM [inhibitor, single point]
COc1ccc(N=C2S/C(=C\c3ccc(OCC(=O)O)cc3)C(=O)N2CCc2c[nH]c3ccccc23)cc1	inconclusive: 39.8 µM [inhibitor, partial curve]
Cc1ccc(CNC(=O)Cc2c(C)c3cc4c(C)coc4cc3oc2=O)cc1	inactive
Cc1ccnc(NC(=O)C(C)N2C(=O)c3ccccc3C2=O)c1 (centres undefined)	inconclusive: 39.8 µM [inhibitor, partial curve, poor fit]
Cc1ccccc1NC(=O)Cn1c(SCC(=O)Nc2ccc(F)cc2)nc2ccccc21	inconclusive: 2 µM [inhibitor, partial curve]
Cc1ccc2nc(Nc3cccc(Cl)c3C)c(-n3nc(C)cc3C)nc2c1	inconclusive: 50.1 µM [inhibitor, partial curve, poor fit]
C#CCOCCOCCOCCNc1nc(N2CCN(C(=O)[C@H](CCCCN)n3cc(CC(C)O)nn3)CC2)nc(N2CCN(C(=O)[C@H](CCCCN)n3cc(CC(C)O)nn3)CC2)n1 (some centres undefined)	inconclusive: 39.8 µM [inhibitor, partial curve]
O=C(c1ccccc1)c1cccc(NC(=O)c2ccc(Br)o2)c1	inactive
CC1=C(C(=O)Nc2ccccc2)C(c2ccncc2)n2nc(SCc3ccccc3Cl)nc2N1 (centres undefined)	inactive
CCC(=O)N1CCc2cc(Br)cc(S(=O)(=O)CCC(=O)N3CCN(c4cccc(C(F)(F)F)c4)CC3)c21	inconclusive: 4.47 µM [inhibitor, single point]
Cc1ccc(NC(=O)C2CCCN(c3nnc(C)c4c(C)n(-c5ccccc5)nc34)C2)c(Cl)c1 (centres undefined)	inactive
CCN(CC(=O)Nc1ccccc1OC)C(=O)CCc1ccccc1	inconclusive: 44.7 µM [inhibitor, partial curve, poor fit]
O=C(CNC(=O)c1ccc(Br)cc1)OC1CCOC1=O (centres undefined)	inconclusive: 0.398 µM [inhibitor, full curve, poor fit]
Cc1cccc(N(C(=O)CNC(=O)c2ccco2)C(C(=O)NCC2CCCO2)c2ccccc2)c1 (centres undefined)	inconclusive: 6.31 µM [inhibitor, single point]
COC(=O)C1=C(N)Oc2cc(C)n(Cc3cccnc3)c(=O)c2C1c1ccc(OC)c(OC)c1 (centres undefined)	inconclusive: 0.126 µM [inhibitor, full curve, poor fit]
CCOC(=O)c1cccc(NC(=O)c2cc3sccc3n2Cc2ccc(Cl)cc2)c1	inactive
NC(=O)c1cc(Cl)ccc1OCC(=O)NC1CC1	inconclusive: 31.6 µM [inhibitor, partial curve, poor fit]
Cc1csc(NC(=O)c2cc3c(s2)CCCC3)n1	inconclusive: 44.7 µM [inhibitor, partial curve, poor fit]
COc1ccc(NC(=O)CN(C)C(=O)c2cc(CN3C(=O)c4ccccc4C3=O)ccc2OC)cc1	inconclusive: 0.355 µM [inhibitor, full curve]
CCN(c1ncnc2c1cnn2-c1ccc(C)cc1)C1CCCCC1	inactive
Oc1ccc(/C=N/Nc2ccnc3cc(Cl)ccc23)cc1O	inconclusive: 28.2 µM [inhibitor, partial curve]
O=C(NC1CCCCC1)c1ccc(S(=O)(=O)N2CCOCC2)cc1	inconclusive: 0.282 µM [inhibitor, full curve]

Among those listed so far, these contain a furan ring, fused or not:
Structure (SMILES)	Potency
Cc1ccc(CNC(=O)Cc2c(C)c3cc4c(C)coc4cc3oc2=O)cc1	inactive
O=C(c1ccccc1)c1cccc(NC(=O)c2ccc(Br)o2)c1	inactive
Cc1cccc(N(C(=O)CNC(=O)c2ccco2)C(C(=O)NCC2CCCO2)c2ccccc2)c1 (centres undefined)	inconclusive: 6.31 µM [inhibitor, single point]

A few values from the list:
For Potency, `CCN(c1ncnc2c1cnn2-c1ccc(C)cc1)C1CCCCC1` shows inactive
For Potency, `Cc1ccc(NC(=O)C2CCCN(c3nnc(C)c4c(C)n(-c5ccccc5)nc34)C2)c(Cl)c1` (centres undefined) shows inactive

More structures follow:

Structure (SMILES)	Potency
O=C(CC(=O)c1ccccc1)Nc1ccc([N+](=O)[O-])cc1	inconclusive: 39.8 µM [inhibitor, single point]
CC12COC3(P(=O)(c4ccccc4)c4ccccc4)CC1CCC23CP(=O)(c1ccccc1)c1ccccc1 (centres undefined)	inactive
CCn1c2c(c(=O)n3ncc(C(=O)Nc4cc(Cl)ccc4C)c13)CN(Cc1ccc(OC)cc1)CC2	inconclusive: 35.5 µM [inhibitor, single point]
Cc1nn(C)cc1CN(C)C(=O)C1CCC(=O)N(CCc2cccc(F)c2)C1 (centres undefined)	inactive
Cc1ccn2c(Nc3ccc(C(C)C)cc3)c(-c3cccs3)nc2c1	inconclusive: 1.41 µM [inhibitor, partial curve]
CN1CCc2c(sc3c2C(=O)NC(c2ccccc2)N3)C1 (centres undefined)	inconclusive: 39.8 µM [inhibitor, partial curve]
Cc1cccc(N2CCN(C(=O)c3cccn4c(=O)c5cc(Cl)ccc5nc34)CC2C)c1 (centres undefined)	inconclusive: 44.7 µM [inhibitor, partial curve, poor fit]
O=C(NNC1=NS(=O)(=O)c2ccccc21)c1ccc([N+](=O)[O-])cc1	inconclusive: 15.8 µM [inhibitor, partial curve]
Cc1nc2nc(NC(=O)c3ccccc3F)[nH]n2c(=O)c1Cl	inconclusive: 1.58 µM [inhibitor, full curve, poor fit]
Cc1ccc(S(=O)(=O)N2CCNC(=O)CC2)cc1	inconclusive: 39.8 µM [inhibitor, partial curve, poor fit]
Cc1cc(/C=C2/SC(=S)N(c3cccc(C(F)(F)F)c3)C2=O)c(C)n1-c1cccnc1	inconclusive: 31.6 µM [inhibitor, partial curve]
COc1ccc(OCCNc2cc(Cl)ccc2[N+](=O)[O-])cc1	inconclusive: 0.355 µM [inhibitor, full curve, poor fit]
O=C(Nc1ccccc1N1CCCC1)c1ccc(Cl)cc1Cl	inactive
Cc1nc2cc(C(F)(F)F)ccc2n1CCNc1nc(-c2ccc([N+](=O)[O-])c(Cl)c2)cs1	inconclusive: 0.251 µM [inhibitor, full curve, poor fit]
COc1ccccc1-c1nnc(SCC(=O)Nc2ccccc2F)o1	inconclusive: 56.2 µM [inhibitor, partial curve, poor fit]
N#CC1c2ccccc2C=CN1C(=O)N(c1ccccc1)c1ccccc1 (centres undefined)	inconclusive: 3.98 µM [inhibitor, full curve, poor fit]
CC(C)C(NS(=O)(=O)c1cccc2nsnc12)C(=O)N1CCn2c1nc1ccccc12 (centres undefined)	inconclusive: 44.7 µM [inhibitor, partial curve]
CCc1ccc(NC(=O)CN2CCCN(Cc3cccc(Cl)c3)S2(=O)=O)cc1	inconclusive: 6.31 µM [inhibitor, full curve]
Cn1c(CSCc2ccc(Cl)cc2)nnc1SCC(=O)Nc1nccs1	inactive
CCCCc1nc(N)c(C#N)c(-c2ccco2)c1CCC	inconclusive: 0.891 µM [inhibitor, full curve]
Cc1ccc(CNC(=O)COC(=O)CCC(=O)c2cccs2)cc1	inconclusive: 35.5 µM [inhibitor, partial curve]
Cc1nn(CC(=O)NCc2ccco2)c(=O)c2cc3ccccc3n12	inactive

Structure (SMILES)	Potency
COc1ccc(-c2cc(C(F)(F)F)c(C#N)c(SCC(=O)Nc3ccccc3C#N)n2)cc1	inactive
S=c1[nH]nc(COc2ccccc2)n1/N=C/c1ccccn1	inactive
CC(=O)O/N=C/c1c(NCc2ccccc2)nc2c(C)cccn2c1=O	inconclusive: 50.1 µM [inhibitor, partial curve, poor fit]
CCCC(=O)N(CCc1ccc(OC)cc1)Cc1nc2ccccc2c(=O)[nH]1	inconclusive: 4.47 µM [inhibitor, single point]
O=C(Nc1ccc(O)c2c(=O)cc(-c3ccccc3Cl)oc12)c1cccs1	inconclusive: 6.31 µM [inhibitor, full curve]
Oc1ccccc1Nc1nc(-c2ccccc2)c2cc(Cl)ccc2n1	inactive
COc1ccc(NC(=O)COc2cccc3c2OC(C)(C)C3)c(OC)c1	inconclusive: 15.8 µM [inhibitor, partial curve, poor fit]
COC(=O)c1ccc(Cl)cc1NC(=O)N1CC=C(c2c[nH]c3ccccc23)CC1	inconclusive: 35.5 µM [inhibitor, partial curve, poor fit]
Cc1ccc(Cc2nc3ccccc3nc2SCC(=O)N2CCc3ccccc32)cc1	inactive
COc1ccc2[nH]c(CN3CCN(CC(C)C)C(CCO)C3)c(C)c2c1 (centres undefined)	inactive
CCn1ccnc1CN1CCCC(C(=O)c2ccc3cc(OC)ccc3c2)C1 (centres undefined)	inconclusive: 17.8 µM [inhibitor, partial curve]
CC(C)[C@H](NS(=O)(=O)c1ccccc1)C(=O)OCc1cc([N+](=O)[O-])cc2c1OCOC2	inconclusive: 5.01 µM [inhibitor, full curve, poor fit]
CC1(C)C(=O)Nc2ccccc2N1C(=O)COC(=O)c1ccc([N+](=O)[O-])o1	inconclusive: 35.5 µM [inhibitor, single point]
O=C(NCCO)c1cccc(Nc2nc(-c3ccccc3)c3cc(Cl)ccc3n2)c1	inconclusive: 50.1 µM [inhibitor, partial curve, poor fit]
Cc1nc(SCC(=O)Nc2nnc(C(C)C)s2)n[nH]1	inconclusive: 1 µM [inhibitor, partial curve]
COc1cc(OC)c(NC(=O)c2c(C)oc3ncn(C)c(=O)c23)cc1Cl	inconclusive: 22.4 µM [inhibitor, partial curve, poor fit]
O=C(COC(=O)c1cccnc1Cl)NCc1ccco1	inactive
CSc1cccc(NC(=O)COc2ccccc2)c1	inactive
CCCC(=O)Nc1cc(=O)n(C)c(=O)n1C	inconclusive: 39.8 µM [inhibitor, partial curve]
COc1ccc2nc(SCC(=O)NCCc3ccccc3)[nH]c2c1	inconclusive: 44.7 µM [inhibitor, partial curve, poor fit]
